Source: publication PMC11879040, “Advancing systemic toxicity risk assessment: Evaluation of a NAM-based toolbox approach” (Toxicological Sciences, 2024)

Experiment: Bioactivity:exposure ratio (BER) and toolbox decision (low-risk / uncertain risk)
Set-up: species or system human

SMILES	Toolbox decision (low-risk benchmark scenario) (driven by HTTr BIFROST HepaRG and MCF7 PoDs)	BER from inhibition of the carbonic anhydrase II enzyme (L2)
CC(C)(CO)C(O)C(=O)NCCCO (centres unmarked) [Panthenol, 2,4-Dihydroxy-N-(3-hydroxypropyl)-3,3-dimethylbutanamide]	uncertain risk	–
CC1(C)O[C@@H]2[C@@H](CO[C@@]3(COS(N)(=O)=O)OC(C)(C)O[C@@H]23)O1 [Topiramate, [(3aS,5aR,8aR,8bS)-2,2,7,7-Tetramethyltetrahydro-2H,3aH,7H-bis[1,3]dioxolo[4,5-b:4',5'-d]pyran-3a-yl]methyl sulfamate (non-preferred name)]	–	BER<L2 threshold
